Patent US20040019026A1, “Compounds useful for treating hypertriglyceridemia” (priority 2000, published 2004)
Several values for one entry are separate records, joined by “and”; a condition that tells them apart may be missing. Equal entries are not always repeated.

Legend:
[1] = test system: Female CD-1 mice; assay: Dexamethasone-induced thymic and splenic atrophy, anti-glucocorticoid effect (Example 4); assay type: in vivo; conditions: no DEX
Description: Female CD-1 mice were obtained from Charles River Laboratories, Kingston, N.Y. at 43-45 days of age. The mice were housed five per cage in plastic shoebox cages on corn cob bedding in the Fels Animal Facility at 72°±2° F. with 50%±5% humidity and twelve hours of alternate light and darkness. The mice had ad libitum access to Purina chain 5015 and acidified water for pretreatment.
Six days later, the mice were weighed, earmarked and redistributed into six groups for treatment: 1) a control group, 2) a group treated with dexamethasone (“DEX”), a glucocorticoid which induces thymic and splenic atrophy, 3) a group treated with 200 mg/kg 16α-fluoro-5-androsten-17-one (hereinafter “drug”), 4) a group treated with 400 mg/kg of, 5) a group treated with dexamethasone and 200 mg/kg drug and 6) a group treated with dexamethasone and 400 mg/kg drug. The treatment in the groups were as follows and were conducted simuitaneously.
The control group was intubated with 0.2 mL of sesame oil for three days. On the third day after commencement of the intubation, the mice were injected subcutaneously with 0.05 mL of absolute ethanol one hour after the last treatment with sesame oil.
The second group was intubated with 0.2 mL of sesame oil for three days. […]

[2] = test system: male BKS.Cg-m+/+Leprdb mice; assay: Seminal vesicle weights, androgenic potency (Example 9); assay type: in vivo
Text: Eight week old male BKS.Cg-m^+/+Lepr^db mice were obtained from Jackson Laboratories. These mice have a point mutation in the leptin receptor gene and produce a truncated receptor with impaired signaling capacity. These animals are severely insulin resistant and manifest an uncontrolled rise in blood sugar, severe depletion of the insulin-producing beta-cells of the pancreatic islets, and death by 10 months of age. The male animals also have very low plasma testosterone levels and as a consequence undeveloped seminal vesicle glands. Administration of androgens to these mice produces an increase in seminal vesicle weights similar to that seen in castrated males. Thus these animals can be used to assess androgenic potency of various compounds.
The mice were housed five per cage on Alphacel bedding with ad libitum access to Purina 5015 chow and acidified water. The mice were housed in the Central Animal Facility (6th floor, Pharmacy building) with twelve hours of alternating light and darkness.
A week later, the mice were treated subcutaneously (s.c.) with 0.05 mL fluasterone (16α-fluoro-5-androsten-17-one) suspended in an Emulphor-saline vehicle to give either a dose of 5 mg/kg s.c. or 20 mg/kg s.c. or intraperitoneally (i.p.) with 0.05 mL of fluasterone suspended in an Emulphor-saline vehicle to give a dose of 5 mg/kg. The Control mice received the Emulphor-saline vehicle s.c.
All the mice were anesthetized lightly with isoflurane before treatment with fluasterone to minimize the risk of stressing the mice while giving the s.c. dose. Their food was removed the afternoon before administration with drug and the chow was to the mice the next morning immediately after treatment. All the mice had their chow removed daily and restored just after fluasterone administration. During the week, the mice had access to chow for approximately 6½ hours, while on the weekends, the mice had approximately 4½ hours of access to chow. Mice were treated daily (weekdays and weekends).
Mice were treated daily with fluasterone, for about one month. Then the mice were sacrificed with an overdose of CO2. The seminal vesicles of each mouse were excised, cleaned of adventitia and the coagulating glands, and any liquid was pressed out and then the glands were weighed on a Mettler AE50 balance.

C[C@]12CCCCC1=CC[C@@H]1[C@@H]2CC[C@]2(C)C(=O)[C@H](F)C[C@@H]12 [fluasterone, 16α-fluoro-5-androsten-17-one]
Body Weight ([1]; 200 mg/kg drug intubated for three days): 23.7 ± 0.9 gm | Body Weight ([1]; 400 mg/kg drug intubated for three days): 24.7 ± 1.9 gm | Body Weight ([2]; 5 mg/kg, i.p. daily about one month, individual mice): 40.6 gm and 50.6 gm and 46.0 gm and 39.9 gm | Body Weight ([2]; 5 mg/kg, i.p., Average): 44.3 gm | Body Weight ([2]; 5 mg/kg, s.c. daily about one month, individual mice): 47.5 gm and 38.2 gm and 46.5 gm and 44.8 gm and 43.8 gm | Body Weight ([2]; 5 mg/kg, s.c., Average): 44.2 gm | Body Weight ([2]; 20 mg/kg, s.c. daily about one month, individual mice): 45.6 gm and 35.8 gm and 39.9 gm and 42.9 gm | Body Weight ([2]; 20 mg/kg, s.c., Average): 41.1 gm
